In the supplement of paper PMC8728848:
Some of the results follow.

Key:
Assay in all cases: glycan array binding signal (z-score within array); higher = stronger binding
Conditions in all cases: glycan notation: IUPAC condensed, linker removed
Gal3S4S(b1-4)GlcNAc = target: Gal3S4S(b1-4)GlcNAc
In short: (§1)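 The binding signal is a Z-score computed within each array. Data were drawn from 3228 arrays in the Consortium for Functional Glycomics database, restricted to those with a known protein sequence. Scores were averaged over arrays of the same protein sequence at different concentrations or buffers, and over linkers, and negative values can be taken as non-binding.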

Gal3S6S(b1-4)GlcNAc = target: Gal3S6S(b1-4)GlcNAc
In short: as §1

Gal3S6S(b1-4)GlcNAc6S = target: Gal3S6S(b1-4)GlcNAc6S
In short: as §1

Gal4S(b1-4)GlcNAc = target: Gal4S(b1-4)GlcNAc
In short: as §1

Gal4S6S(b1-4)GlcNAc = target: Gal4S6S(b1-4)GlcNAc
In short: as §1

Gal6P(b1-4)GlcNAc = target: Gal6P(b1-4)GlcNAc
In short: as §1

Gal6S(b1-3)GlcNAc = target: Gal6S(b1-3)GlcNAc
In short: as §1

Gal6S(b1-3)GlcNAc6S = target: Gal6S(b1-3)GlcNAc6S
In short: as §1

Gal6S(b1-4)Glc = target: Gal6S(b1-4)Glc
In short: as §1

Gal6S(b1-4)Glc6S = target: Gal6S(b1-4)Glc6S
In short: as §1

Gal6S(b1-4)GlcNAc = target: Gal6S(b1-4)GlcNAc
In short: as §1

Gal6S(b1-4)GlcNAc6S = target: Gal6S(b1-4)GlcNAc6S
In short: as §1

GalNAc(a1-3)Gal = target: GalNAc(a1-3)Gal
In short: as §1

GalNAc(a1-3)GalNAc = target: GalNAc(a1-3)GalNAc
In short: as §1

[1] = target: GalNAc(a1-3)GalNAc(b1-3)Gal(a1-4)Gal(b1-4)Glc
In short: as §1

[2] = target: GalNAc(a1-3)GalNAc(b1-3)Gal(a1-4)Gal(b1-4)GlcNAc
In short: as §1

GalNAc(b1-3)Gal = target: GalNAc(b1-3)Gal
In short: as §1

[3] = target: GalNAc(b1-3)Gal(a1-4)Gal(b1-4)GlcNAc
In short: as §1

[4] = target: GalNAc(b1-3)Gal(a1-4)Gal(b1-4)GlcNAc(b1-3)Gal(b1-4)Glc
In short: as §1

[5] = target: GalNAc(b1-3)Gal(a1-6)Gal(b1-4)Glc
In short: as §1

GalNAc(b1-3)GalNAc = target: GalNAc(b1-3)GalNAc
In short: as §1

GalNAc(b1-3)GlcNAc = target: GalNAc(b1-3)GlcNAc
In short: as §1

GalNAc(b1-4)Gal(b1-4)Glc = target: GalNAc(b1-4)Gal(b1-4)Glc
In short: as §1

GalNAc(b1-4)GlcNAc = target: GalNAc(b1-4)GlcNAc
In short: as §1

[6] = target: GalNAc(b1-4)GlcNAc(b1-2)Man
In short: as §1

[7] = target: GalNAc(b1-4)GlcNAc(b1-2)Man(a1-3)[GalNAc(b1-4)GlcNAc(b1-2)Man(a1-6)]Man(b1-4)GlcNAc(b1-4)GlcNAc
In short: as §1

[8] = target: GalNAc(b1-4)GlcNAc(b1-3)GalNAc(b1-4)GlcNAc
In short: as §1

GalNAc(b1-4)GlcNAc6S = target: GalNAc(b1-4)GlcNAc6S
In short: as §1

GalNAc(b1-6)GalNAc = target: GalNAc(b1-6)GalNAc
In short: as §1

GalNAc3S(b1-4)GlcNAc = target: GalNAc3S(b1-4)GlcNAc
In short: as §1

GalNAc3S(b1-4)GlcNAc3S = target: GalNAc3S(b1-4)GlcNAc3S
In short: as §1

[9] = target: GalNAc3S(b1-4)[Fuc(a1-3)]GlcNAc
In short: as §1

GalNAc4S6S(b1-4)GlcNAc = target: GalNAc4S6S(b1-4)GlcNAc
In short: as §1

GalNAc6S(b1-4)GlcNAc = target: GalNAc6S(b1-4)GlcNAc
In short: as §1

Glc(a1-4)Glc = target: Glc(a1-4)Glc
In short: as §1

[10] = target: Glc(a1-4)Glc(a1-4)Glc(a1-4)Glc
In short: as §1

Glc(a1-6)Glc(a1-6)Glc = target: Glc(a1-6)Glc(a1-6)Glc
In short: as §1

[11] = target: Glc(a1-6)Glc(a1-6)Glc(a1-6)Glc
In short: as §1

B1: ERGIC1-EDTA (Homo sapiens), Q969X5 (protein)
chain: MKFLVNVALVFMVVYISYIYAAAHMHHHHHHDYDIPTTENLYFQGSEVVNELYVDDPDKDSGGKIDVSLNISLPNLHCELVGLDIQDEMGRHEVGHIDNSMKIPLNNGAGCRFEGQFSINKVPGNFHVSTHSATAQPQNPDMTHVIHKLSFGDTLQVQNIHGAFNALGGADRLTSNPLASHDYILKIVPTVYEDKSGKQRYSYQYTVANKEYVAYSHTGRIIPAIWFRYDLSPITVKYTE
Question: With B1 as the binder, how does the “glycan array binding signal (z-score)” value (Gal3S4S(b1-4)GlcNAc) read?
Answer: -0.158

Question: What about the “glycan array binding signal (z-score)” value (Gal3S6S(b1-4)GlcNAc) of the same binder?
Answer: -0.478

Question: What about the “glycan array binding signal (z-score)” value (Gal3S6S(b1-4)GlcNAc6S) of the same binder?
Answer: -0.247

Question: What about the “glycan array binding signal (z-score)” value (Gal4S(b1-4)GlcNAc) of the same binder?
Answer: -0.824

Question: And the “glycan array binding signal (z-score)” value (Gal4S6S(b1-4)GlcNAc)?
Answer: 0.5

Question: And the “glycan array binding signal (z-score)” value (Gal6P(b1-4)GlcNAc)?
Answer: -0.048

Question: What about the “glycan array binding signal (z-score)” value (Gal6S(b1-3)GlcNAc) of the same binder?
Answer: 0.099

Question: What about the “glycan array binding signal (z-score)” value (Gal6S(b1-3)GlcNAc6S) of the same binder?
Answer: -0.704

Question: And the “glycan array binding signal (z-score)” value (Gal6S(b1-4)Glc)?
Answer: -0.636

Question: What about the “glycan array binding signal (z-score)” value (Gal6S(b1-4)Glc6S) of the same binder?
Answer: -1.01

Question: What about the “glycan array binding signal (z-score)” value (Gal6S(b1-4)GlcNAc) of the same binder?
Answer: -0.715

Question: What about the “glycan array binding signal (z-score)” value (Gal6S(b1-4)GlcNAc6S) of the same binder?
Answer: -0.925

Question: What about the “glycan array binding signal (z-score)” value (GalNAc(a1-3)Gal) of the same binder?
Answer: -0.863

Question: What about the “glycan array binding signal (z-score)” value (GalNAc(a1-3)GalNAc) of the same binder?
Answer: 0.742

Question: And the “glycan array binding signal (z-score)” value [1]?
Answer: -0.639

Question: And the “glycan array binding signal (z-score)” value [2]?
Answer: 0.601

Question: And the “glycan array binding signal (z-score)” value (GalNAc(b1-3)Gal)?
Answer: 0.705

Question: What about the “glycan array binding signal (z-score)” value [3] of the same binder?
Answer: 0.344

Question: And the “glycan array binding signal (z-score)” value [4]?
Answer: -0.485

Question: And the “glycan array binding signal (z-score)” value [5]?
Answer: -0.357

Question: And the “glycan array binding signal (z-score)” value (GalNAc(b1-3)GalNAc)?
Answer: -0.852

Question: And the “glycan array binding signal (z-score)” value (GalNAc(b1-3)GlcNAc)?
Answer: -0.21

Question: What about the “glycan array binding signal (z-score)” value (GalNAc(b1-4)Gal(b1-4)Glc) of the same binder?
Answer: -0.531

Question: What about the “glycan array binding signal (z-score)” value (GalNAc(b1-4)GlcNAc) of the same binder?
Answer: -0.421

Question: What about the “glycan array binding signal (z-score)” value [6] of the same binder?
Answer: 0.09

Question: What about the “glycan array binding signal (z-score)” value [7] of the same binder?
Answer: 0.638

Question: What about the “glycan array binding signal (z-score)” value [8] of the same binder?
Answer: -0.132

Question: And the “glycan array binding signal (z-score)” value (GalNAc(b1-4)GlcNAc6S)?
Answer: -0.515

Question: And the “glycan array binding signal (z-score)” value (GalNAc(b1-6)GalNAc)?
Answer: -0.578

Question: What about the “glycan array binding signal (z-score)” value (GalNAc3S(b1-4)GlcNAc) of the same binder?
Answer: 0.029

Question: What about the “glycan array binding signal (z-score)” value (GalNAc3S(b1-4)GlcNAc3S) of the same binder?
Answer: -0.19

Question: And the “glycan array binding signal (z-score)” value [9]?
Answer: -0.091

Question: And the “glycan array binding signal (z-score)” value (GalNAc4S6S(b1-4)GlcNAc)?
Answer: 0.021

Question: What about the “glycan array binding signal (z-score)” value (GalNAc6S(b1-4)GlcNAc) of the same binder?
Answer: -1.03

Question: What about the “glycan array binding signal (z-score)” value (Glc(a1-4)Glc) of the same binder?
Answer: -0.302

Question: What about the “glycan array binding signal (z-score)” value [10] of the same binder?
Answer: 0.621

Question: And the “glycan array binding signal (z-score)” value (Glc(a1-6)Glc(a1-6)Glc)?
Answer: 0.05

Question: What about the “glycan array binding signal (z-score)” value [11] of the same binder?
Answer: 0.807
